# Assay results published in publication PMC10873344.
# By UniProt entry, the sequences of proteins in these tests, tags left out. Where a name states a change or a piece, a line headed by the entry shows the natural chain unless it says otherwise. Chains listed by the source or under a name are the forms on record and can include a tag or linker. Residues count along the entry.
# HRD1 (HMG-CoA reductase degradation 1), endogenous human (human (endogenous in HEK293T)) (Q86TM6, form named): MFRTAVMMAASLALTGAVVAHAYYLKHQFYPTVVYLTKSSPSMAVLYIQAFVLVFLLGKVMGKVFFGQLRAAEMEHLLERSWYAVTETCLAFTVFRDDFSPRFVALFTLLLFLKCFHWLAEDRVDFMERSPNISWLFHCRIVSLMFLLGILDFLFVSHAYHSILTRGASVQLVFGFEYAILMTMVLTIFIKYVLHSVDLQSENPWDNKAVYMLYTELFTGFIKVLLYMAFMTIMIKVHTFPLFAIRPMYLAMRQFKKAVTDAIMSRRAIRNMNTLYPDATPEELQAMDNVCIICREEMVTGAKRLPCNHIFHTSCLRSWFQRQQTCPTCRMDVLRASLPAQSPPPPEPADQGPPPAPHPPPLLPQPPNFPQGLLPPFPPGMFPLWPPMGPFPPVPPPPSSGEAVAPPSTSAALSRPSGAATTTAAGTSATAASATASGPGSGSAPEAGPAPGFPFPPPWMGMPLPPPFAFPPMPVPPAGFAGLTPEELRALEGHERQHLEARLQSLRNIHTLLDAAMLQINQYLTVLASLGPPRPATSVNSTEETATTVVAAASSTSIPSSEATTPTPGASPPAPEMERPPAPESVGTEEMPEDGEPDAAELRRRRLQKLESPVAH
# UniProt Q9UBV2, residues 22-794: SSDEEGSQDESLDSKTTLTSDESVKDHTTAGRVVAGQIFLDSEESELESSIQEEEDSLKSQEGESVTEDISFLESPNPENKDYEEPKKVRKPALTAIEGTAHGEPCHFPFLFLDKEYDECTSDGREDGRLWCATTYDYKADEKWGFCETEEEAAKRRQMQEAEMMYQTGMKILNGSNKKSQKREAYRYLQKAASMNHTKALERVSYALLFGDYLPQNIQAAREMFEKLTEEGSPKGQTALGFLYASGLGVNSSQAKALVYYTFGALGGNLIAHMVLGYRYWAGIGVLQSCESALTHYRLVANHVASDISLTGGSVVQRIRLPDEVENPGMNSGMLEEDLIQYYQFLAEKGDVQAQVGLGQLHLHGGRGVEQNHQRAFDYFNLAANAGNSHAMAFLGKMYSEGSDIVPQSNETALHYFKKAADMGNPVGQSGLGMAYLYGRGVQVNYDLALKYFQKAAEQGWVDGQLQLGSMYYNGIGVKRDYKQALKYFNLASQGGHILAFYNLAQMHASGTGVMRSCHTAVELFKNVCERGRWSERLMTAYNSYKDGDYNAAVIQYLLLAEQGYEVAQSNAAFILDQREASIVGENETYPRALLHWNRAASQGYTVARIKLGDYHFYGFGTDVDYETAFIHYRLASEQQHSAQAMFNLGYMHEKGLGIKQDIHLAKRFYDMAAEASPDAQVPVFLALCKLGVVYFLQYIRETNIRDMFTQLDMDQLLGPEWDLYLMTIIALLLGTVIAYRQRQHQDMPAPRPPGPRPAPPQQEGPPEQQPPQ
# What was measured:
# [1] = molecular target: HRD1 (HMG-CoA reductase degradation 1), endogenous human (human (endogenous in HEK293T)) (UniProt Q86TM6); assay: affinity purification with mass spectrometry; IP of endogenous SEL1L or HRD1 from WT, SEL1L-/- or HRD1-/- HEK293T lysates (NP-40 lysis buffer, protein A agarose), LC-MS, three independent repeats, knock-out cells with IgG as negative control
# [2] = molecular target: SEL1L (suppressor of lin-12-like), endogenous human (human (endogenous in HEK293T)) (UniProt Q9UBV2); assay: as above
Binder,binding [1],binding [2]
"FAM8A1, endogenous human (protein, UniProt Q9UBU6 1-413) MAEGPEEARGHPPGQDDGGGDHEPVPSLRGPPTTAVPCPRDDPQAEPQAPGRPTAPGLAAAAAADKLEPPRELRKRGEAASGSGAELQEQAGCEAPEAAAPRERPARLSAREYSRQVHEWLWQSYCGYLTWHSGLAAFPAYCSPQPSPQSFPSGGAAVPQAAAPPPPQLGYYNPFYFLSPGAAGPDPRTAAGISTPAPVAGLGPRAPHVQASVRATPVTRVGSAAPSRSPSETGRQAGREYVIPSLAHRFMAEMVDFFILFFIKATIVLSIMHLSGIKDISKFAMHYIIEEIDEDTSMEDLQKMMVVALIYRLLVCFYEIICIWGAGGATPGKFLLGLRVVTCDTSVLIAPSRVLVIPSSNVSITTSTIRALIKNFSIASFFPAFITLLFFQHNRTAYDIVAGTIVVKRNGVR",binds,
"OS9 (Osteosarcoma amplified 9), endogenous human (protein, UniProt Q13438 26-667) GGVGSLNLEELSEMRYGIEILPLPVMGGQSQSSDVVIVSSKYKQRYECRLPAGAIHFQREREEETPAYQGPGIPELLSPMRDAPCLLKTKDWWTYEFCYGRHIQQYHMEDSEIKGEVLYLGYYQSAFDWDDETAKASKQHRLKRYHSQTYGNGSKCDLNGRPREAEVRFLCDEGAGISGDYIDRVDEPLSCSYVLTIRTPRLCPHPLLRPPPSAAPQAILCHPSLQPEEYMAYVQRQADSKQYGDKIIEELQDLGPQVWSETKSGVAPQKMAGASPTKDDSKDSDFWKMLNEPEDQAPGGEEVPAEEQDPSPEAADSASGAPNDFQNNVQVKVIRSPADLIRFIEELKGGTKKGKPNIGQEQPVDDAAEVPQREPEKERGDPERQREMEEEEDEDEDEDEDEDERQLLGEFEKELEGILLPSDRDRLRSEVKAGMERELENIIQETEKELDPDGLKKESERDRAMLALTSTLNKLIKRLEEKQSPELVKKHKKKRVVPKKPPPSPQPTEEDPEHRVRVRVTKLRLGGPNQDLTVLEMKRENPQLKQIEGLVKELLEREGLTAAGKIEIKIVRPWAEGTEEGARWLTDEDTRNLKEIFFNILVPGAEEAQKERQRQKELESNYRRVWGSPGGEGTGDLDEFDF",,binds
"DERL2, endogenous human (protein, UniProt Q9GZP9 1-239) MAYQSLRLEYLQIPPVSRAYTTACVLTTAAVQLELITPFQLYFNPELIFKHFQIWRLITNFLFFGPVGFNFLFNMIFLYRYCRMLEEGSFRGRTADFVFMFLFGGFLMTLFGLFVSLVFLGQAFTIMLVYVWSRRNPYVRMNFFGLLNFQAPFLPWVLMGFSLLLGNSIIVDLLGIAVGHIYFFLEDVFPNQPGGIRILKTPSILKAIFDTPDEDPNYNPLPEERPGGFAWGEGQRLGG",,binds

# Results, then the binder that gave them:
binding [1],binding [2],Binder
binds,,"HERP1, endogenous human (protein, UniProt Q15011 1-391) MESETEPEPVTLLVKSPNQRHRDLELSGDRGWSVGHLKAHLSRVYPERPRPEDQRLIYSGKLLLDHQCLRDLLPKQEKRHVLHLVCNVKSPSKMPEINAKVAESTEEPAGSNRGQYPEDSSSDGLRQREVLRNLSSPGWENISRPEAAQQAFQGLGPGFSGYTPYGWLQLSWFQQIYARQYYMQYLAATAASGAFVPPPSAQEIPVVSAPAPAPIHNQFPAENQPANQNAAPQVVVNPGANQNLRMNAQGGPIVEEDDEINRDWLDWTYSAATFSVFLSILYFYSSLSRFLMVMGATVVMYLHHVGWFPFRPRPVQNFPNDGPPPDVVNQDPNNNLQEGTDPETEDPNHLPPDRDVLDGEQTSPSFMSTAWLVFKTFFASLLPEGPPAIAN"
,binds,"UBE2J1, endogenous human (enzyme, UniProt Q9Y385 1-318) METRYNLKSPAVKRLMKEAAELKDPTDHYHAQPLEDNLFEWHFTVRGPPDSDFDGGVYHGRIVLPPEYPMKPPSIILLTANGRFEVGKKICLSISGHHPETWQPSWSIRTALLAIIGFMPTKGEGAIGSLDYTPEERRALAKKSQDFCCEGCGSAMKDVLLPLKSGSDSSQADQEAKELARQISFKAEVNSSGKTISESDLNHSFSLTDLQDDIPTTFQGATASTSYGLQNSSAASFHQPTQPVAKNTSMSPRQRRAQQQSQRRLSTSPDVIQGHQPRDNHTDHGGSAVLIVILTLALAALIFRRIYLANEYIFDFEL"
binds,,"ABCD3, endogenous human (protein, UniProt P28288 1-659) MAAFSKYLTARNSSLAGAAFLLLCLLHKRRRALGLHGKKSGKPPLQNNEKEGKKERAVVDKVFFSRLIQILKIMVPRTFCKETGYLVLIAVMLVSRTYCDVWMIQNGTLIESGIIGRSRKDFKRYLLNFIAAMPLISLVNNFLKYGLNELKLCFRVRLTKYLYEEYLQAFTYYKMGNLDNRIANPDQLLTQDVEKFCNSVVDLYSNLSKPFLDIVLYIFKLTSAIGAQGPASMMAYLVVSGLFLTRLRRPIGKMTITEQKYEGEYRYVNSRLITNSEEIAFYNGNKREKQTVHSVFRKLVEHLHNFILFRFSMGFIDSIIAKYLATVVGYLVVSRPFLDLSHPRHLKSTHSELLEDYYQSGRMLLRMSQALGRIVLAGREMTRLAGFTARITELMQVLKDLNHGKYERTMVSQQEKGIEGVQVIPLIPGAGEIIIADNIIKFDHVPLATPNGDVLIRDLNFEVRSGANVLICGPNGCGKSSLFRVLGELWPLFGGRLTKPERGKLFYVPQRPYMTLGTLRDQVIYPDGREDQKRKGISDLVLKEYLDNVQLGHILEREGGWDSVQDWMDVLSGGEKQRMAMARLFYHKPQFAILDECTSAVSVDVEGYIYSHCRKVGITLFTVSHRKSLWKHHEYYLHMDGRGNYEFKQITEDTVEFGS"

# No constants are given. Whether binding was seen depends on the method and setting. In cells and extracts the contact can be indirect. These calls come from enrichment with a bait or labelling near it, and not all partners need be listed.
